Laboratory results from article PMC10349144.
Results are given in words; binding and its absence hold for the method and conditions named. Binding seen in cells or lysates may run through a third protein. Some results given as binding are weak or reduced against the parent protein; the word gives no strength. For part of these data: Where a sequence is shown, tags or fusion partners need not be part of it.

Amino acid sequences for entries named in this document (tags omitted). A change or cut given only in a name is not applied to a line headed by its entry. Chains listed by the source or under a name are the forms on record and can include a tag or linker.
Myc-tagged RORγt (retinoic-acid related orphan receptor-γt) (P51450, form named): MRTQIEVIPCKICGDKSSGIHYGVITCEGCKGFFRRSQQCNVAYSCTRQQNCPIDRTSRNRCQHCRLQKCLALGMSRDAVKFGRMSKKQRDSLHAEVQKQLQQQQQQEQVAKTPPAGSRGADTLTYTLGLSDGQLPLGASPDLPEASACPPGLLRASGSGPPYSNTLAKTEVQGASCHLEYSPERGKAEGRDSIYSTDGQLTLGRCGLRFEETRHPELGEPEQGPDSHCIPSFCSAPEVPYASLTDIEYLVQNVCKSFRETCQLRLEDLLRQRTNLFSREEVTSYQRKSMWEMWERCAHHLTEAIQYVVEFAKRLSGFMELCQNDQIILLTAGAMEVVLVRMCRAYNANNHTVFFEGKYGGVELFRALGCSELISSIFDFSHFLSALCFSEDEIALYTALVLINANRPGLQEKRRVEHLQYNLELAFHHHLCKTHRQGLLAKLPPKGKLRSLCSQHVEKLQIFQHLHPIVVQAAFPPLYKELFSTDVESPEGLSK

How the values were obtained:
[1] = biological target: Myc-tagged RORγt (retinoic-acid related orphan receptor-γt) (UniProt P51450); assay: co-IP; 293T cells co-transfected with tagged expression plasmids (Lipofectamine 2000), 48 h, RIPA lysis; anti-HA, anti-Flag or anti-Myc antibody, Dynabeads Protein G; western blot
[2] = biological target: T1, HA-tagged Foxp3 (forkhead-box P3) (UniProt Q99JB6); assay: as above
T1 sequence: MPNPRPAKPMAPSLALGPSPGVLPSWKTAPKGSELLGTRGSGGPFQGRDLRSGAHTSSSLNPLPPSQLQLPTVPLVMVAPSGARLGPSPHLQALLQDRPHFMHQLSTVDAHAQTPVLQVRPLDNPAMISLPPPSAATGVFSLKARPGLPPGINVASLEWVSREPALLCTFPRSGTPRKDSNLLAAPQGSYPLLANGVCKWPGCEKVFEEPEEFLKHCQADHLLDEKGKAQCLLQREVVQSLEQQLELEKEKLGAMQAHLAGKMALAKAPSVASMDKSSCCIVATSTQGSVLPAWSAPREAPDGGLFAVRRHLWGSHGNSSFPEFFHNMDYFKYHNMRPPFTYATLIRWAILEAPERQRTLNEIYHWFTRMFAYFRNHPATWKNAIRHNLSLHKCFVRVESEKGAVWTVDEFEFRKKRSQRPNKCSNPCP

[3] = biological target: T2, Foxp3 (of the 'endogenous Co-IP') (UniProt Q99JB6); assay: co-IP; 'endogenous Co-IP' using the plasmids overexpressing IKKα and Foxp3 in 293T cells; plasmids co-transfected or transfected individually depending on endogenous or exogenous Co-IP; RIPA lysis, Dynabeads Protein G
T2 sequence: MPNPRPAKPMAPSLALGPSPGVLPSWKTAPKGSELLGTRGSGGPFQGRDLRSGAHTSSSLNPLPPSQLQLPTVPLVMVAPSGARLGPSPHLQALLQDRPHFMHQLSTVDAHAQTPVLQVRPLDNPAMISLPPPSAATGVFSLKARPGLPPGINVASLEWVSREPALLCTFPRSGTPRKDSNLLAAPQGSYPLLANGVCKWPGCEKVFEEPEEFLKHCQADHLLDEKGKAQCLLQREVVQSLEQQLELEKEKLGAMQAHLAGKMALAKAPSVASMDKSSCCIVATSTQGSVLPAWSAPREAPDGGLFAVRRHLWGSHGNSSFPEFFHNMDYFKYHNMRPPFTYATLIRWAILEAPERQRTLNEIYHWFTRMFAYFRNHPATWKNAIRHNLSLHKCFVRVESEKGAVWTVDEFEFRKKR

B1: HA-tagged IKKα (IκB kinase-alpha) (enzyme, UniProt Q60680 1-745)
chain: MERPPGLRPGAGGPWEMRERLGTGGFGNVSLYQHRELDLKIAIKSCRLELSSKNRERWCHEIQIMKKLDHANVVKACDVPEELNFLINDVPLLAMEYCSGGDLRKLLNKPENCCGLKESQILSLLSDIGSGIRYLHENKIIHRDLKPENIVLQDVGGKTIHKIIDLGYAKDVDQGSLCTSFVGTLQYLAPELFENKPYTATVDYWSFGTMVFECIAGYRPFLHHLQPFTWHEKIKKKDPKCIFACEEMTGEVRFSSHLPQPNSLCSLIVEPMESWLQLMLNWDPQQRGGPIDLTLKQPRCFALMDHILNLKIVHILNMTSAKIISFLLPCDESLHSLQSRIERETGINTGSQELLSETGISLDPRKPASQCVLDGVRGCDSYMVYLFDKSKTVYEGPFASRSLSDCVNYIVQDSKIQLPIIQLRKVWAEAVHYVSGLKEDYSRLFQGQRAAMLSLLRYNANLTKMKNTLISASQQLKAKLEFFRKSIQLDLERYSEQMTYGISSEKMLKAWKEMEEKAIHYSEVGVIGYLEDQIMSLHTEIMELQKSPYGRRQGDLMESLEQRAIDLYKQLKHRPPDHLYSDSTEMVKIIVHTVQSQDRVLKELFGHLSKLLGCKQKIIDLLPKVEVALSNIKEADNTVMFMQGKRQKEIWHLLKIACTQSSARSLVGSSLEGTVTPPVSAWLPPTLADREHPLTCVVTPQDGETLAQMIEENLNCLGHLSTIIREANEDQSSSLMSLDWSWLAE
- binding [1]: binds

B2: Flag-tagged IKKα (IκB kinase-alpha) (enzyme, UniProt Q60680 1-745)
chain: B1 chain
- binding [2]: binds

B3: IKKα (of the 'endogenous Co-IP') (enzyme, UniProt Q60680 1-745)
chain: B1 chain
- binding [3]: binds
